At least one structure is not confirmed: it was looked up by name or label, or the drawing left a doubt. Some results were stated once for a whole list of compounds, not compound by compound.
Assays:
[1] = cited from earlier work
[2] = system: Chronic constriction injury (CCI) model of mononeuropathy, mechanical hyperalgesia; experiment: Paw-pinch test of mechanical hyperalgesia in chronic constriction injury (CCI) rats after single oral administration; assay type: in vivo, Harlan Sprague-Dawley male albino rats
Description: Harlan Sprague-Dawley male albino rats (230-350 g), provided by the University of Cádiz Animal Experimentation Unit registered under the number ES110120000210, were used. The animals were kept under standard housing conditions (21° C., 12h light-dark cycle, “ad libitum” water and food). All experiments were carried out in accordance with the ethical guidelines for working with experimental animals proposed by the International Association for the Study of Pain […] and by the Federation of Laboratory Animal Science Associations (FELASA).
Chronic constriction injury, (CCI) was used as a model of mononeuropathy since it is a model that correlates well with the symptoms presented in the patients (spontaneous pain, mechanical and thermal allodynia and hyperalgesia.
Nociceptive behavior was evaluated in the ipsi- and contralateral paw to the ligation for sciatic nerve […]. The presence of mechanical hyperalgesia was assessed by using the paw-pinch test. Thus, gradual, increasing pressure (starting with 30 g of pressure) was exerted on the rear part of the paw using a motorized device (Analgesia Meter 57215, UGO BASILE). The cut-off pressure was set at 250 g to prevent possible damage to the paw. Two measurements were taken on each paw, 5 minutes apart, and the average value was used for statistical purposes. Mechanical hyperalgesia appeared as the pressure on the paw decreased.

CCCCCOc1ccc(C(=O)c2cccc3ccccc23)c2ccccc12 [CB13, 1-naphthalenyl[4-(pentyloxy)-1-naphthalenyl]methanone]
Biopharmaceutics Classification System (BCS) class [1]: class II | time of maximum anti-hyperalgesic effect ([2]; CB13 alone): 30 min and 180 min | time until the anti-hyperalgesic effect became evident after administration ([2]; single oral administration, nanoparticles at CB13 doses 1.7-6.8 mg/kg): ≤ 30 min

From patent US20210121414A1, “METHOD FOR PRODUCING A PHARMACEUTICAL COMPOSITION OF POLYMERIC NANOPARTICLES FOR TREATING NEUROPATHIC PAIN CAUSED BY […] COMPRESSION” (UNIVERSIDAD DE SEVILLA, priority 2015, published 2021)
